Results published in article PMC9606263, “Polerovirus N-terminal readthrough domain structures reveal molecular strategies for mitigating virus transmission by aphids” (Nature Communications, 2022).
No constants are given. Whether binding was seen depends on the method and setting. Some binding calls cover weakened binding; strength is not graded here.

Target: Selenomethionine-labeled PLRV NRTD (residues 230-458) (potato leafroll virus) (UniProt P17525)
Assay: crystal structure; SeMet PLRV NRTD at 6 mg/ml, sitting drop, 20 °C, 0.1 M Tris-HCl pH 8.5, 0.25 M ammonium sulfate, 14% PEG 8000, 3% ethylene glycol, 5 mM DTT; dimer in the asymmetric unit; both purified

B1: Selenomethionine-labeled PLRV NRTD (residues 230-458) (domain or fragment, UniProt P17525 230-458)
chain: HERFIAYVGIPMLTIQARENDDQIILGSLGSQRMKYIEDENQNYTKFSSEYYSQSSMQAVPMYYFNVPKGQWSVDISCEGYQPTSSTSDPNRGRSDGMIAYSNADSDYWNVGEADGVKISKLRNDNTYRQGHPELEINSCHFREGQLLERDATISFHVEAPTDGRFFLVGPAIQKTAKYNYTISYGDWTDRDMELGLITVVLDEHLEGTGSANRVRRPPREGHTYMASP
modifications: selenomethionine in place of methionine
With B1 the binding was “binds”.
